# Some of the results follow. Repeats in this data set agree poorly, so a single value says little.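 In a drug-repurposing library screen, luminescence reads luciferase driven by eight TEAD-binding elements, stably integrated into human kidney-derived cells. Compounds scoring over five robust Z scores above the plate mean are called hits.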
# System: HEK293A TEAD-LUC reporter
# Assay: TEAD-luciferase reporter activity (YAP activation), robust Z score vs plate; higher = stronger YAP/TEAD activation
# Conditions: 24 h
Compound,TEAD-luciferase reporter activity (compound concentration: 2 uM),TEAD-luciferase reporter activity (compound concentration: 200 nM),TEAD-luciferase reporter activity (compound concentration: 10 uM)
CO[C@@H]1[C@H](N(C)C(=O)c2ccccc2)C[C@H]2O[C@]1(C)n1c3ccccc3c3c4c(c5c6ccccc6n2c5c31)C(=O)NC4 [Midostaurin],inactive: 0.86,–,–
CO[C@@H]1[C@H](N(C)C(=O)c2ccccc2)C[C@H]2O[C@]1(C)n1c3ccccc3c3c4c(c5c6ccccc6n2c5c31)C(=O)NC4,–,inactive: 2.53,inactive: -0.743
Cc1oc(=O)oc1COC(=O)C1=C([C@H]2CCCO2)S[C@@H]2[C@@H]([C@@H](C)O)C(=O)N12 [Faropenem daloxate],inactive: -1.2,inactive: 1.14,inactive: 0.118
COc1cc(O)c2c(=O)oc(CO)cc2c1 [Cytogenin],inactive: -0.0905,inactive: -1.06,inactive: -0.681
Cc1ccccc1CC(=O)Nc1cc(C)c(S(=O)(=O)C[N+](=O)[O-])c(C)c1,inactive: 0.205,inactive: -1.6,inactive: -0.291
C[C@]12CCC(=O)C=C1CC[C@@H]1[C@@H]2[C@@H](O)C[C@@]2(C)[C@H]1CC[C@]2(O)C(=O)COC(=O)COc1nn(Cc2ccccc2)c2ccccc12,inactive: 0.93,inactive: -0.723,inactive: 1.96
CCCCc1oc2ccccc2c1C(=O)c1ccc(OCCN(CC)CC)s1,inactive: 0.567,inactive: -0.415,inactive: -0.28
CC(=O)Nc1ccc(C2=NNC(=O)C[C@H]2C)cc1,inactive: -0.916,inactive: 0.214,inactive: 0.558
COc1cc(N)c(Cl)cc1C(=O)NCC1CCN(CCCn2ccnn2)CC1,inactive: 1.44,inactive: -1.49,inactive: 1.05
CN1CCN(C2=Cc3cc(Cl)ccc3/C(=C/C#N)c3ccccc32)CC1 [rilapine],inactive: -0.0937,inactive: -1.21,inactive: -1.69
COc1cccc(Oc2c(NS(=O)(=O)c3ccc(C(C)(C)C)cc3)ncnc2OCCO)c1,inactive: 0.0934,inactive: -3.1,inactive: 4.03
CC1(C)Oc2ccc(S(=O)(=O)c3ccccc3)cc2[C@H](N2CCCC2=O)[C@H]1O,inactive: -0.414,inactive: -0.28,inactive: 0.273
CC(C)CCC[C@@H](C)C1CCC2C3CCC4=C/C(=N/O)CC[C@]4(C)C3CC[C@@]21C (stereo not given in full) [Olesoxime],inactive: -1.57,–,inactive: -1.73
CC1=C(/C=C/C(C)=C/C=C/C(C)=C/C(=O)OCC(=O)C(C)(C)C)C(C)(C)CCC1,inactive: -0.087,inactive: 4.82,inactive: 1.59
"CC(C)[N+]1(C)C2CCC1CC(OC(=O)C(CO)c1ccccc1)C2 (stereo not given) [ipratropium bromide, Premaire]",inactive: 2.37,–,–
CC(C)[N+]1(C)C2CCC1CC(OC(=O)C(CO)c1ccccc1)C2 (stereo not given) [Ipratropium Bromide],–,inactive: -1.59,inactive: -0.61
NC(=O)CC(=O)Nc1ccc(OCc2cccc(F)c2)cc1,inactive: 0.581,inactive: 0.0884,inactive: -1.18
CC(C)S(=O)(=O)N[C@H]1Cc2ccc(-c3ccc(F)nc3)cc2C1,inactive: -0.149,inactive: -1.29,inactive: -0.418
COc1ccc(N2CCN(C(=O)CC(OC(N)=O)c3ccccc3)CC2)cc1OC (stereo not given),inactive: -0.41,inactive: 1.93,inactive: -0.616
O=c1cc(-c2nnn[nH]2)oc2c(/C=C/c3ccc(OCCCCc4ccccc4)cc3)cccc12,inactive: -0.27,inactive: -1.59,inactive: 1.61
CCS(=O)(=O)C(F)(F)[C@](O)(Cn1cncn1)c1ccc(F)cc1F,–,inactive: 0.922,inactive: 0.59
CNS(=O)(=O)c1ccc(Oc2ccc(SC)cc2)c(CN(C)C)c1,inactive: -1.39,inactive: -0.00577,inactive: 0.701
N=C(N)NCCC[C@@H](N)C(=O)N[C@@H](CCCNC(=N)N)C(=O)N1CCC[C@H]1C(=O)N1C[C@H](O)C[C@H]1C(=O)NCC(=O)N[C@@H](Cc1ccccc1)C(=O)N[C@@H](CO)C(=O)N[C@H](Cc1ccccc1)C(=O)N[C@@H](Cc1ccccc1)C(=O)N[C@@H](CCCNC(=N)N)C(=O)O,inactive: -0.297,inactive: -1.21,inactive: 3.06
Cc1cc(NC(=O)C2C(=O)c3ccccc3S(=O)(=O)N2C)no1 (stereo not given) [isoxicam],inactive: 0.564,inactive: -0.213,inactive: 0.975
CSc1ccc(CN2CCCC(Nc3ccc4[nH]ncc4c3)C2)cc1 (stereo not given),inactive: 1.19,inactive: 0.698,inactive: 1.59
CN1C2=CC(=O)/C(=N/NC(N)=O)C=C2CC1S(=O)(=O)O (stereo not given) [Carbazochrome sodium sulfonate],inactive: 0.385,inactive: 2.76,inactive: 1.27

# 2 records picked at random from the list so far:
Compound,TEAD-luciferase reporter activity (compound concentration: 2 uM),TEAD-luciferase reporter activity (compound concentration: 200 nM),TEAD-luciferase reporter activity (compound concentration: 10 uM)
NC(=O)CC(=O)Nc1ccc(OCc2cccc(F)c2)cc1,inactive: 0.581,inactive: 0.0884,inactive: -1.18
CC1(C)Oc2ccc(S(=O)(=O)c3ccccc3)cc2[C@H](N2CCCC2=O)[C@H]1O,inactive: -0.414,inactive: -0.28,inactive: 0.273
